Data published in paper PMC6981194.
No constants are given. Whether binding was seen depends on the method and setting. In cells and extracts the contact can be indirect. A yes stands for co-enrichment or nearness to the bait. Other partners may have been found.

The chains behind the UniProt entries cited, without tags or fusion partners.
UniProt P46460: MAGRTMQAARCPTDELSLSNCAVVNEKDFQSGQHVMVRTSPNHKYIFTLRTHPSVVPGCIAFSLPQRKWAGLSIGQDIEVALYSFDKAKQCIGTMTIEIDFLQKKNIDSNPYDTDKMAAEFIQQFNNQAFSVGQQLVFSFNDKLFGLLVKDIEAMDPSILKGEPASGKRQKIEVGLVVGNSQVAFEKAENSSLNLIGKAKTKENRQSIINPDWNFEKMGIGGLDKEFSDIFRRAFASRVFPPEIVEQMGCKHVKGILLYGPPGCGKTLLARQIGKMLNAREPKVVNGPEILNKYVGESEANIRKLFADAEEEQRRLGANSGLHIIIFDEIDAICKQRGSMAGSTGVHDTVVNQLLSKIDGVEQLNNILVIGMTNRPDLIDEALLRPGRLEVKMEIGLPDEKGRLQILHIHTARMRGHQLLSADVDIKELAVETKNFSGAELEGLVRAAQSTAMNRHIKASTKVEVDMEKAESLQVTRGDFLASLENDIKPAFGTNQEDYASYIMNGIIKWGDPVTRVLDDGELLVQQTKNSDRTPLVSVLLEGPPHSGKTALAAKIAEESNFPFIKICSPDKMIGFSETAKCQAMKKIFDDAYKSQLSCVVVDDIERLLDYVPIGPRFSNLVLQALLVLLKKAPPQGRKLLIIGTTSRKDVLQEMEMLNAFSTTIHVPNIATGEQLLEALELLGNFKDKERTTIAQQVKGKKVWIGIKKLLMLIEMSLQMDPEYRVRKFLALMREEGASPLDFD

Target: T1, acid-sensing ion channel 1a (ASIC1a), endogenous in mouse brain and cultured mouse cortical neurons (mouse (endogenous in brain and cortical neurons)) (UniProt Q6NXK8)
T1 sequence: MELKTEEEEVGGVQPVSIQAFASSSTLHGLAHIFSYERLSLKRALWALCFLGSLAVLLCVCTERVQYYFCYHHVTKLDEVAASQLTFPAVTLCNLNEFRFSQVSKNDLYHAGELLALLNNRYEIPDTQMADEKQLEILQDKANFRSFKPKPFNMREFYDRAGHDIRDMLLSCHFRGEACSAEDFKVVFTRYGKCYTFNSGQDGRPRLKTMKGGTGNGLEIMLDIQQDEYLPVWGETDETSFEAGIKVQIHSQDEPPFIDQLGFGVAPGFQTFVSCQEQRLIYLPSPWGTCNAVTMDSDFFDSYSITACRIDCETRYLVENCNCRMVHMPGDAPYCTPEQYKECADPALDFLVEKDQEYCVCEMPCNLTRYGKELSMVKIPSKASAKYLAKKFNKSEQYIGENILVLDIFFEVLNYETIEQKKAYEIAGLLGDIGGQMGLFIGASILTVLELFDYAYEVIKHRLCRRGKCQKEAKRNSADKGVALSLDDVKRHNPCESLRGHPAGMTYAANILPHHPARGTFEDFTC
Assay: affinity purification with mass spectrometry; immunoprecipitation with a polyclonal anti-ASIC1a antibody from contralateral and ischemic mouse brain hemispheres; SDS-PAGE, Coomassie blue, ~85 kDa band excised, trypsin digest, MALDI-TOF-MS

binding: binds
Substance: N-ethylmaleimide-sensitive fusion ATPase (NSF), endogenous in mouse brain and cultured mouse cortical neurons (from UniProt P46460 1-744)
